PubChem BioAssay AID1508597 – Cure First, 2020
This is an unselected part of the about 2,100 reagents, in one setting of the screen. 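Calls flag viability under 80% in either arm, not effects specific to rucaparib; the reference for percent is not stated.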 A reagent listed more than once was tested more than once; the source does not tell the runs apart. The record does not give: the 100% reference.

Aim: 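Genes whose silencing sensitises or protects ovarian cancer cells against rucaparib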 (primary screen)
Cell system: human ovarian carcinoma lines grown from tumours: OCI-P5x (papillary serous) and OCI-C5x (clear cell)
Reagents: siRNA pool against human genes, 1.25 pmol siRNA per well
Time to read-out: 72 h or 96 h, depending on the cell culture
Challenge: rucaparib 20 µM (about IC30) or vehicle, present until read-out
Rucaparib or vehicle: Vehicle
Cell line: OCI-C5x (clear cell)
Detection: 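ATP luminescence measured at 72 or 96 h according to the culture, then normalised and expressed as percent viability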
Scale: viability, normalised: higher = more viable cells remaining
Hit rule: 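a well counts as a hit if its normalised viability is under 80 percent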
Meaning of the calls: active = viability under 80%; inactive = viability 80% or more

| gene knocked down | technical replicate | viability, normalised (%) | call |
| --- | --- | --- | --- |
| OARD1 | 1 | 25.6 | active |
| OARD1 | 2 | 41.4 | active |
| OARD1 | 3 | 41.6 | active |
| TDRD6 | 1 | 57.9 | active |
| TDRD6 | 2 | 63.3 | active |
| TDRD6 | 3 | 50.1 | active |
| SLC2A9 | 1 | 30.2 | active |
| SLC2A9 | 2 | 37.6 | active |
| SLC2A9 | 3 | 36.1 | active |
| PDE4D | 1 | 32.2 | active |
| PDE4D | 2 | 44.5 | active |
| PDE4D | 3 | 30 | active |
| DCLRE1B | 1 | 32.7 | active |
| DCLRE1B | 2 | 38.3 | active |
| DCLRE1B | 3 | 35.6 | active |
| CARM1 | 1 | 22.6 | active |
| CARM1 | 2 | 31.8 | active |
| CARM1 | 3 | 27.1 | active |
| NAP1L4 | 1 | 42.5 | active |
| NAP1L4 | 2 | 36.1 | active |
| NAP1L4 | 3 | 48.3 | active |
| PDE2A | 1 | 59.2 | active |
| PDE2A | 2 | 57 | active |
| PDE2A | 3 | 60.4 | active |
| STK16 | 1 | 94.2 | inactive |
| STK16 | 2 | 58.6 | active |
| STK16 | 3 | 52.1 | active |
| PIK3R1 | 1 | 39.4 | active |
| PIK3R1 | 2 | 44.5 | active |
| PIK3R1 | 3 | 51.7 | active |
| PRDM13 | 1 | 34.2 | active |
| PRDM13 | 2 | 42.5 | active |
| PRDM13 | 3 | 47.7 | active |
| MPG | 1 | 62.9 | active |
| MPG | 2 | 64 | active |
| MPG | 3 | 57.7 | active |
| CRKL | 1 | 60.7 | active |
| CRKL | 2 | 48.7 | active |
| CRKL | 3 | 39.3 | active |
| PKN2 | 1 | 47.1 | active |
| PKN2 | 2 | 56.3 | active |
| PKN2 | 3 | 46.7 | active |
| RAD23B | 1 | 43.8 | active |
| RAD23B | 2 | 47.8 | active |
| RAD23B | 3 | 30.9 | active |
| MSH5 | 1 | 44 | active |
| MSH5 | 2 | 57.9 | active |
| MSH5 | 3 | 62.6 | active |
| MLH1 | 1 | 47 | active |
| MLH1 | 2 | 55.6 | active |
| MLH1 | 3 | 61.7 | active |
| TXK | 1 | 47 | active |
| TXK | 1 | 57 | active |
| TXK | 2 | 68.6 | active |
| TXK | 2 | 52.4 | active |
| TXK | 3 | 42.5 | active |
| TXK | 3 | 52.8 | active |

In a second layout: entries from further up
{"gene knocked down": "RAD23B", "technical replicate": "3", "viability, normalised (%)": 30.9, "call": "active"}
{"gene knocked down": "MSH5", "technical replicate": "1", "viability, normalised (%)": 44, "call": "active"}
{"gene knocked down": "MSH5", "technical replicate": "2", "viability, normalised (%)": 57.9, "call": "active"}
{"gene knocked down": "MSH5", "technical replicate": "3", "viability, normalised (%)": 62.6, "call": "active"}
{"gene knocked down": "MLH1", "technical replicate": "1", "viability, normalised (%)": 47, "call": "active"}
{"gene knocked down": "MLH1", "technical replicate": "2", "viability, normalised (%)": 55.6, "call": "active"}
